From paper PMC7563687
Results are given in words; binding and its absence hold for the method and conditions named. Binding seen in cells or lysates may run through a third protein. Some binding calls cover weakened binding; strength is not graded here.

Sequences of proteins named here, by UniProt entry; tags and fusion partners are left off.
UniProt Q9WV30: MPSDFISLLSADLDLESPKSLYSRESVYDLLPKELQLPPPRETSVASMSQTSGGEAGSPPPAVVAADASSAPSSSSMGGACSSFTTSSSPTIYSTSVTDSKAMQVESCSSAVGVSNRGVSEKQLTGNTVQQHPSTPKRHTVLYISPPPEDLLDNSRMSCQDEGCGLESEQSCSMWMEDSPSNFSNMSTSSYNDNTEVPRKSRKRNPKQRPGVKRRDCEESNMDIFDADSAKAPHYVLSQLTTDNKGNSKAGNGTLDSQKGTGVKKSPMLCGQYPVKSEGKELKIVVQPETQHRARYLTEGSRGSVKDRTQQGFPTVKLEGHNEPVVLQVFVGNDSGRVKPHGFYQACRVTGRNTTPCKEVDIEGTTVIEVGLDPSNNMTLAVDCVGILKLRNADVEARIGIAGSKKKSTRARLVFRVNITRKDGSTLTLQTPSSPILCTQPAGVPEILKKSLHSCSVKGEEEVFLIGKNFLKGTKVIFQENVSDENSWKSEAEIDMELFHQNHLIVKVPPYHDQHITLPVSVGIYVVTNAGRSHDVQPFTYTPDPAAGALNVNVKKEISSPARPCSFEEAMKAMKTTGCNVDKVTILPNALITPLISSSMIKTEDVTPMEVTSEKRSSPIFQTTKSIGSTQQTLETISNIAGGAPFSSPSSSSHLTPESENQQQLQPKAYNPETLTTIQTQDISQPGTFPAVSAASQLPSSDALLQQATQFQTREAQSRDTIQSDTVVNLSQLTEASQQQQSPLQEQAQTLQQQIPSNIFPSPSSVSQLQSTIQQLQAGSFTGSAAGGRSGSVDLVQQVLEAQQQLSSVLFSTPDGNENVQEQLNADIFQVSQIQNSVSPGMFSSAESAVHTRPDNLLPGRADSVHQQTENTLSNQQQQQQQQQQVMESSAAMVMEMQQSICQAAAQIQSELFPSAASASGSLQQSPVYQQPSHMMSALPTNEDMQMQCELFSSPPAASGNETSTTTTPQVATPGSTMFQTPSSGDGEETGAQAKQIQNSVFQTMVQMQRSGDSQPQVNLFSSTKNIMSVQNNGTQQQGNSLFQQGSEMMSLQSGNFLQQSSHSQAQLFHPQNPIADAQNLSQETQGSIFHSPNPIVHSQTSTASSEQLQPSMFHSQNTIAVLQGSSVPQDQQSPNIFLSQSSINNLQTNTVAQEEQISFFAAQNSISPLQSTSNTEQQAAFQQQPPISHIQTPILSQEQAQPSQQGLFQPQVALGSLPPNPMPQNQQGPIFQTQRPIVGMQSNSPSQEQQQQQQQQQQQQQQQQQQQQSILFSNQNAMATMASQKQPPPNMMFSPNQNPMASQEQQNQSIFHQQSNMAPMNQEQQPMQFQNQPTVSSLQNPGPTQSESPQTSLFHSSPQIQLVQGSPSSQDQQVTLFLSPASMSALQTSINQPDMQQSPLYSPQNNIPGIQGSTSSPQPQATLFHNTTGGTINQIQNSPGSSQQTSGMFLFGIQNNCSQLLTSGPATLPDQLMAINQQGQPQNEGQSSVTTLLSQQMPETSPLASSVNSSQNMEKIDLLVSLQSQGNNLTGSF
UniProt Q9ESK9: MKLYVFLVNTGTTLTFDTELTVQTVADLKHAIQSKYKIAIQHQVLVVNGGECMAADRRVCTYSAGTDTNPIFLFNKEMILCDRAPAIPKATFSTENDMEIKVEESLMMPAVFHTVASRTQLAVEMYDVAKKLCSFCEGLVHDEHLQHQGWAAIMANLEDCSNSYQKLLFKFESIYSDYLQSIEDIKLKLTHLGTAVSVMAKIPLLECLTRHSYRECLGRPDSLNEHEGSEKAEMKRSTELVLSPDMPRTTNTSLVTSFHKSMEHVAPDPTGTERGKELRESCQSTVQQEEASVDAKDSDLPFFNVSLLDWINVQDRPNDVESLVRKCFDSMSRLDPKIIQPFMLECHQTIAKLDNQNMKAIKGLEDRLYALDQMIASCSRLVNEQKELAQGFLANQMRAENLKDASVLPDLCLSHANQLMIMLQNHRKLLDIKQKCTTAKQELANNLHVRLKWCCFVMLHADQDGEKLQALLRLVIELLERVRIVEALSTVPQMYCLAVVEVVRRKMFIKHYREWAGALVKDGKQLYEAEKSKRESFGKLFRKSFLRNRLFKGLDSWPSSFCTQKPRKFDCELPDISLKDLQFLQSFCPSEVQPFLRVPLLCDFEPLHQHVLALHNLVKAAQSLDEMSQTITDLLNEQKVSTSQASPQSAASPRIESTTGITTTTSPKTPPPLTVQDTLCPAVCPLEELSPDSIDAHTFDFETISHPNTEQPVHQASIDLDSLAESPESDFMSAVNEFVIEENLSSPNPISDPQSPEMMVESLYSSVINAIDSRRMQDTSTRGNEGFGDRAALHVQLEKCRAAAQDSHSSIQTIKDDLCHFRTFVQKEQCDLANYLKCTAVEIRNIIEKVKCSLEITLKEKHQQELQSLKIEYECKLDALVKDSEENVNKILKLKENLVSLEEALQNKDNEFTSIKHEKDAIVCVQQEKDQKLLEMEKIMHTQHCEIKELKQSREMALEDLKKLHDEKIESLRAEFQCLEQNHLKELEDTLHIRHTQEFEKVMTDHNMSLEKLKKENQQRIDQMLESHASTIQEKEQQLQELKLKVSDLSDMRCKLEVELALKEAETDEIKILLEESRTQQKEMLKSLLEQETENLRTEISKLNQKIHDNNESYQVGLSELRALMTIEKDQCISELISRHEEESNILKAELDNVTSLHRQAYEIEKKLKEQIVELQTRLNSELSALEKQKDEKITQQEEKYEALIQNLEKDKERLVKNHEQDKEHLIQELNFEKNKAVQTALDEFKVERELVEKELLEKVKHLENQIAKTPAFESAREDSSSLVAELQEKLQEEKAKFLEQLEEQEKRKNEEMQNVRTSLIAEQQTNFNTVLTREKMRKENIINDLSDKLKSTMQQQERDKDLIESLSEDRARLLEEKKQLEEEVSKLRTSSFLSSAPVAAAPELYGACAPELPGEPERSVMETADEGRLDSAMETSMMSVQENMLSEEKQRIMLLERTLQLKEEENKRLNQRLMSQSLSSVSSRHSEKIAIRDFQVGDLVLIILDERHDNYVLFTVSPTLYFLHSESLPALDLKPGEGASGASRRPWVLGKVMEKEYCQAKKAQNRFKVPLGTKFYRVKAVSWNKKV

Molecular target: Tonicity-responsive enhancer-binding protein (TonEBP), endogenous in MIN6-M9 cells (mouse (endogenous in MIN6-M9)) (UniProt Q9WV30)
Test: co-IP; endogenous proteins; MIN6-M9 cell lysates (RIPA buffer) immunoprecipitated with TonEBP antibody or normal serum, immunoblotted for FIP200 and TonEBP

binding: binds
Substance: FIP200, endogenous in MIN6-M9 cells (from UniProt Q9ESK9 1-1588)
